{"sequences": {"note": "By UniProt entry, the sequences of proteins in these tests, tags left out.", "UniProt Q9SEH3": "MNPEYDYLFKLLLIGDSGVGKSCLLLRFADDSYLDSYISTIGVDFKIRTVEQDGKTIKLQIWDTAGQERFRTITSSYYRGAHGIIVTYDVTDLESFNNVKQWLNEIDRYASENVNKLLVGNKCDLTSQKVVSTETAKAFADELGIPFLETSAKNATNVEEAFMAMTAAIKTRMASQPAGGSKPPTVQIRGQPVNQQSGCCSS"}, "source": "paper doi:10.1101/2021.07.09.451837", "key": {"[1]": {"target": "His6-tagged RabD2c (Rab GTPase, At4g17530) (Arabidopsis thaliana) (UniProt Q9SEH3)", "test": "pull-down"}, "[2]": {"target": "His6-tagged RabD2c (Rab GTPase, At4g17530) (Arabidopsis thaliana) (UniProt Q9SEH3)", "test": "pull-down", "remark": "listed apart in the source"}}, "note": "Where two headings read alike, the source gives them in different places. These are yes or no findings as the source states them, for the method shown. For some assays here: A result given as binding can be weak or reduced; the word gives no strength."}
{"substance": "MBP-RXR1, full length (from UniProt Q9LSF2)", "values": [{"measurement": "binding", "setting": "[1]", "result": "binds"}, {"measurement": "binding", "setting": "[2]", "result": "no binding (only with 1 mM GDP)"}]}
